Source: publication PMC9763856
These are yes or no findings as the source states them, for the method shown. In cells and extracts the contact can be indirect. Sequences can lack the tags named with a protein.

Biological target: GST-SMAD1 linker region
Assay: pull-down; GST fusion proteins expressed by bacteria incubated with lysates of HEK293T cells transfected with Flag-TAPT1; only the target purified

binding: no binding
B1: Flag-tagged TAPT1 (human Transmembrane anterior posterior transformation 1) (protein, UniProt Q6NXT6 1-567)
chain: MAGVGDAAAPGEGGGGGVDGPQRDGRGEAEQPGGSGGQGPPPAPQLTETLGFYESDRRRERRRGRTELSLLRFLSAELTRGYFLEHNEAKYTERRERVYTCLRIPRELEKLMVFGIFLCLDAFLYVFTLLPLRVFLALFRLLTLPCYGLRDRRLLQPAQVCDILKGVILVICYFMMHYVDYSMMYHLIRGQSVIKLYIIYNMLEVADRLFSSFGQDILDALYWTATEPKERKRAHIGVIPHFFMAVLYVFLHAILIMVQATTLNVAFNSHNKSLLTIMMSNNFVEIKGSVFKKFEKNNLFQMSNSDIKERFTNYVLLLIVCLRNMEQFSWNPDHLWVLFPDVCMVIASEIAVDIVKHAFITKFNDITADVYSEYRASLAFDLVSSRQKNAYTDYSDSVARRMGFIPLPLAVLLIRVVTSSIKVQGILSYACVILFYFGLISLKVLNSIVLLGKSCQYVKEAKMEEKLSNPPATCTPGKPSSKSQNKCKPSQGLSTEENLSASITKQPIHQKENIIPLLVTSNSDQFLTTPDGDEKDITQDNSELKHRSSKKDLLEIDRFTICGNRID
